Data as given in PubChem BioAssay AID652243 (Drosophila RNAi Screening Center, 2013)
In all, the deposit lists about 24,000 reagents; this is an unselected part of those that have a named target and a result. Of all reagents, 246 (1%) were called active. 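Plates not normalised; calls are printed but the firefly/Renilla ratio behind them is not deposited; fold cut for lowering reported inconsistently.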 Raw values vary from plate to plate and are shown uncorrected. A plus sign joins genes that one reagent is predicted to hit. The record does not give: the amount of reagent.

- Purpose: 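Fly genes required for human androgen receptor driven transcription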 (primary screen)
- Cells: Drosophila S2R+ cells
- Reagents: long dsRNA against Drosophila genes
- Time to read-out: 72 h (48 h, then 24 h hormone)
- Conditions: synthetic androgen R1881 at 10 nM for 24 h
- Read-out: 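Per-well raw luminescence of the androgen-driven firefly reporter and of the Renilla control, two replicates each, without normalisation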
- Direction: firefly reporter light: higher = more light from androgen-responsive reporter; Renilla control light: higher = more constitutive control signal (cell number, transfection)
- Hit rule: 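Hit when the log firefly-to-Renilla ratio dropped or increased by a fixed fold versus the mean of GFP or LacZ controls across duplicate plates; lowering cut given as 1.5 and as 3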
- Meaning of the calls: active = hit: reporter lowered or raised; inactive = no hit

Hsc70-3 [DRSC20253] gave firefly reporter light, replicate 1 = 2.43e5; firefly reporter light, replicate 2 = 2.96e5; Renilla control light, replicate 1 = 2.21e6; Renilla control light, replicate 2 = 2.14e6; inactive.
Hsc70-3 [DRSC25105] showed firefly reporter light, replicate 1 = 3.51e5; firefly reporter light, replicate 2 = 3.86e5; Renilla control light, replicate 1 = 3.70e5; Renilla control light, replicate 2 = 4.19e5; inactive.
Gyc76C + CG42637 [DRSC11180] scored firefly reporter light, replicate 1 = 33622; firefly reporter light, replicate 2 = 15008; Renilla control light, replicate 1 = 2.67e5; Renilla control light, replicate 2 = 1.12e5; inactive.
Gyc76C + CG42637 [DRSC39284] scored inactive.
Depletion of Gyc76C + CG42637 [DRSC39320] came out at: inactive.
With knock-down of gprs [DRSC06761], the record shows firefly reporter light, replicate 1 = 76534; firefly reporter light, replicate 2 = 60462; Renilla control light, replicate 1 = 1.40e6; Renilla control light, replicate 2 = 1.40e6; inactive.
Setd3 [DRSC17840] showed firefly reporter light, replicate 1 = 2.52e5; firefly reporter light, replicate 2 = 4.05e5; Renilla control light, replicate 1 = 3.04e6; Renilla control light, replicate 2 = 3.57e6; inactive.
Against Setd3 [DRSC18269], the entry reads firefly reporter light, replicate 1 = 2.50e5; firefly reporter light, replicate 2 = 2.87e5; Renilla control light, replicate 1 = 1.97e6; Renilla control light, replicate 2 = 1.62e6; inactive.
ClC-c [DRSC10499] scored firefly reporter light, replicate 1 = 23722; firefly reporter light, replicate 2 = 6649; Renilla control light, replicate 1 = 3.08e5; Renilla control light, replicate 2 = 1.46e5; inactive.
Knock-down of Sp212 [DRSC22930] came out at: firefly reporter light, replicate 1 = 4.24e5; firefly reporter light, replicate 2 = 1.13e6; Renilla control light, replicate 1 = 1.09e6; Renilla control light, replicate 2 = 1.65e6; inactive.
With knock-down of Sp212 [DRSC28291], the record shows firefly reporter light, replicate 1 = 4.88e5; firefly reporter light, replicate 2 = 5.29e5; Renilla control light, replicate 1 = 1.15e6; Renilla control light, replicate 2 = 1.19e6; inactive.
Against Dsk [DRSC12347] the deposit lists firefly reporter light, replicate 1 = 75838; firefly reporter light, replicate 2 = 59225; Renilla control light, replicate 1 = 2.16e6; Renilla control light, replicate 2 = 1.70e6; inactive.
CG12818 [DRSC14556] scored firefly reporter light, replicate 1 = 84018; firefly reporter light, replicate 2 = 1.35e5; Renilla control light, replicate 1 = 1.94e6; Renilla control light, replicate 2 = 1.73e6; inactive.
After knock-down of CG32061 [DRSC22605], the record shows firefly reporter light, replicate 1 = 7.49e5; firefly reporter light, replicate 2 = 7.33e5; Renilla control light, replicate 1 = 1.74e6; Renilla control light, replicate 2 = 1.04e6; inactive.

2 successive entries from above:
Sp212 [DRSC22930]: firefly reporter light, replicate 1 = 4.24e5; firefly reporter light, replicate 2 = 1.13e6; Renilla control light, replicate 1 = 1.09e6; Renilla control light, replicate 2 = 1.65e6; Outcome = inactive
Sp212 [DRSC28291]: firefly reporter light, replicate 1 = 4.88e5; firefly reporter light, replicate 2 = 5.29e5; Renilla control light, replicate 1 = 1.15e6; Renilla control light, replicate 2 = 1.19e6; Outcome = inactive
